The source of these data is PubChem BioAssay AID445 (National Center for Advancing Translational Sciences (NCATS), 2006).

Each structure is given as a SMILES string. This is one part of the list. Further columns of the screen follow, without active or inactive calls. The list favours compounds with an active or inconclusive main result. The note in brackets gives the kind of curve behind each potency; many fits are weak.

The nature of the assay: IkB Signaling. Particulars: ABC-DLBCL IkBa-CBG/CBR dual luciferase ratio (green luciferase fused to IkBa over red control in OCI-Ly3 lymphoma cells), 4 h; measured here: control luc red channel unless noted. The essentials:
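Curves were fitted separately to fusion (green), unfused (red) and ratio luminescence, then classed by r2, magnitude and activity. Cells: OCI-Ly3, 4 h compound plus doxycycline at 37C; 10 uM MG-132 defined full response.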
As a reminder, the AC50 is the concentration giving half of the maximal activity seen. Take `COc1cc(OC)c(NC(=O)Nc2ccccc2OCc2cc(=O)n3cc(C)ccc3n2)cc1Cl`: the AC50 was 2.51 µM [falling, full curve]. Consider `COCCNC(=O)c1cc(Sc2ccc(F)cc2F)nc2ccccc12`, for which the AC50 is 15.8 µM [falling, partial curve, poor fit].

`O=C(c1ccc2c(c1)N(Cc1ccc(F)cc1)C(=O)c1ccccc1S2(=O)=O)N1CCC(Cc2ccccc2)CC1`: the AC50 is 1 µM [falling, partial curve]. In the case of `COc1ccc(-n2ccn(Cc3ccc(C)cc3)c(=O)c2=O)cc1OC` it was 3.98 µM [rising, partial curve]. In the case of `O=C(CSc1ccc2ccccc2n1)Nc1nsc(-c2ccc(Cl)cc2)n1` it was 0.0794 µM [rising, full curve]; in that of `COc1ccc(Cn2c(SCc3ccc(C(=O)NCc4ccccc4F)cc3)nc3cccnc32)cc1`, 25.1 µM [falling, single point]. The value for `O=C(NCCc1ccccc1)c1c[nH]c2ccc(S(=O)(=O)Nc3ccccc3F)cc2c1=O` was 12.6 µM [falling, single point]; that for `COc1ccc(NC(=O)Nc2nnc(N(C)C3CCCCC3)s2)c(OC)c1` was 20 µM [falling, partial curve]. On to `CC1CCN(C(=O)c2cc(-c3ccc(Cl)cc3)on2)CC1`, for which the concentration at half-maximal activity (AC50) was 0.0631 µM [falling, full curve].

For `CSc1nc2c(c(-c3ccc(O)cc3)c1C#N)CCC2`, the half-maximal activity concentration (AC50) is 15.8 µM [falling, partial curve].

Regarding `CN=C(N)NCCC[C@H](N)C(=O)O`, the AC50 is 2 µM [rising, full curve, poor fit]. In the case of `O=C1c2[nH]nc(-c3ccccc3O)c2C(c2cccc(Cl)c2)N1Cc1ccco1` (stereo not given) it was 20 µM [falling, partial curve]; in that of `CCN(CC)c1ccc(NC(=O)c2cncc(Br)c2)cc1`, 12.6 µM [falling, partial curve]. The value for `COc1ccc(Cl)cc1NC(=O)CCCn1c(C)c2cnn(-c3ccccc3)c(=O)c2c1C` was 0.316 µM [falling, full curve]; that for `O=c1n(Cc2ccccc2)c2cc(Cl)cnc2n1Cc1ccccc1` was 15.8 µM [falling, partial curve]; that for `O=c1c2c(nc3c(-c4ccc(Cl)cc4)c[nH]n13)CCCC2` was 31.6 µM [falling, partial curve].

Consider `COc1ccc(-c2noc(N3CCC(C(=O)Nc4ccc(C)c(F)c4)CC3)n2)cc1OC`, for which the AC50 is 5.01 µM [falling, partial curve].

As to `CCOC(=O)c1c(-c2ccc(C)cc2C)csc1NC(=O)CSc1nnnn1C`, the AC50 was 39.8 µM [falling, single point]. In the case of `Cc1ccc(NC(=O)CC2Nc3cccc4cccc(c34)NC2=O)cc1` (stereo not given), the AC50 was 25.1 µM [falling, partial curve]. The value for `COc1ccc(N(Cc2ccccc2)C(=O)c2nc(SC)ncc2Cl)cc1` was 12.6 µM [falling, partial curve]; that for `CCOc1ccccc1-n1c(SCC(N)=O)nnc1-c1ccco1` was 25.1 µM [falling, partial curve]; that for `Cn1c(=O)c2c(-c3cccc(Br)c3)n(C(C)(C)CO)cc2n(C)c1=O` was 39.8 µM [falling, single point]. As to `Cc1cc2cc(CCNC(=O)c3c(-c4ccccc4Cl)noc3C)c(=O)[nH]c2cc1C`, the AC50 was 10 µM [falling, partial curve].

As to `CN(C)c1ccc(CNC(=O)c2cccc(NC(=O)N3CCSc4ncccc43)c2)cc1`, the AC50 was 12.6 µM [falling, partial curve]. The value for `O=C1N(Cc2ccccc2)c2ccc(Cl)cc2C1(O)c1c[nH]c2ccccc12` (stereo not given) was 20 µM [falling, partial curve]; that for `Cc1cc2nc(-c3ccc(OCc4ccccc4Cl)cc3)cc(C(F)(F)F)n2n1` was 31.6 µM [falling, single point]. The value for `COc1ccccc1NC(=O)Cn1c(SCC(=O)N(C)c2ccccc2)nc2ccccc21` was 20 µM [falling, single point]; that for `COc1cccc2c1cc1c(=O)n(CC(=O)N3CCN(c4ccc(Cl)cc4)CC3)nc(C)n12` was 5.01 µM [rising, full curve]; that for `Fc1ccc(Nc2ncnc3onc(-c4cccc(Cl)c4)c23)c(F)c1` was 2.51 µM [falling, full curve]. Regarding `Cc1cc(C)cc(NC(=O)Cn2cc(S(=O)(=O)NC(C)(C)C)c(S(=O)(=O)NC(C)(C)C)c2)c1`, the half-maximal activity concentration (AC50) was 25.1 µM [falling, partial curve]. The value for `CC(C)c1nc(SCC(=O)N2CCN(c3ccccc3)CC2)c2c(=O)n(C)c(=O)n(C)c2n1` was 2.51 µM [falling, full curve, poor fit]; that for `Cc1ccc(S(=O)(=O)Nc2cccc3ncccc23)s1` was 794 nM [rising, full curve] [measured here: IkB-luc green channel]; that for `COc1cc(OC)c(/C=C2/C(=O)Nc3ccccc32)c(OC)c1` was 2 µM [rising, full curve] [measured here: IkB-luc green channel]. The value for `CCN1CCN(Cc2nc3cc(NC(=O)c4cc(OC)c(OC)c(OC)c4)ccc3n2CC)CC1` was 25.1 µM [falling, single point]. In the case of `COc1ccc(S(=O)(=O)n2nc(-c3ccco3)nc2NCc2ccc(N(C)C)cc2)cc1` it was 10 µM [falling, partial curve]; in that of `Cc1cccnc1NC(=O)c1c(O)c2ccccc2n(C)c1=O`, 10 µM [falling, partial curve]. On to `CCc1ccccc1NC(c1nnc(-c2cccc(F)c2)o1)c1ccc(F)cc1Cl` (stereo not given), for which the AC50 was 25.1 µM [falling, partial curve].

For the molecule `Cn1cccc1-c1nc2ccc(NC(=O)c3cccs3)cc2[nH]1`, the AC50 was 12.6 µM [falling, partial curve].

As to `Cc1ccc2scc(N3CCc4ccccc4C3)c(=O)c2c1`, the AC50 is 0.316 µM [falling, partial curve]. In the case of `COc1ccccc1CN(CC(=O)NCc1ccco1)C(=O)CNS(=O)(=O)c1ccc(C)cc1` it was 12.6 µM [falling, partial curve].
